No constants are given. Whether binding was seen depends on the method and setting. In cells and extracts the contact can be indirect. Some entries that bind do so weakly or less than the wild type.
Target: ABCF1 (UniProt Q6P542)
Assay: co-IP

Protein sequences, listed by entry. Tags and fused reporters are not part of them.
UniProt Q6P542: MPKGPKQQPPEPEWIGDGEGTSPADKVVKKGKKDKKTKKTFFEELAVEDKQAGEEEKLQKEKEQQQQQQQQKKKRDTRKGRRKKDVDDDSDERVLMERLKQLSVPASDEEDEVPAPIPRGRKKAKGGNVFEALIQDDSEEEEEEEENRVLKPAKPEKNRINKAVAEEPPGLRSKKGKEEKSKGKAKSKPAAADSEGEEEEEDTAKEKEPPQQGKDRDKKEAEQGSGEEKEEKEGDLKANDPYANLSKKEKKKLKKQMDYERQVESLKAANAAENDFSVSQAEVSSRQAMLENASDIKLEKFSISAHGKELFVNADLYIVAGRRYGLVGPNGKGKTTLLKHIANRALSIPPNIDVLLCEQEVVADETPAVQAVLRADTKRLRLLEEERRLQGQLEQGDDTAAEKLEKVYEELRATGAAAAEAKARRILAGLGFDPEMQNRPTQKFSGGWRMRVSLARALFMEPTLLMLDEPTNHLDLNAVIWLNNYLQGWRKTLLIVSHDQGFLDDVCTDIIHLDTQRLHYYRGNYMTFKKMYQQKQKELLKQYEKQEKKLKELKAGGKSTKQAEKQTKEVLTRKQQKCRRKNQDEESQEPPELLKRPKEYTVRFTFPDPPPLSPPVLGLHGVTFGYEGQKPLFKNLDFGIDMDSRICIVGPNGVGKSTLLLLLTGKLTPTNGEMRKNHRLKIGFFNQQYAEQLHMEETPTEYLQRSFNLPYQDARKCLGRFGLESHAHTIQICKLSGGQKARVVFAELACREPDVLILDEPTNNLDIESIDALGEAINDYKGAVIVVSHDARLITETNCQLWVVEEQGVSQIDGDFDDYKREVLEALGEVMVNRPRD

binding: binds
B1: OAS1a (protein, UniProt P11928 1-367)
chain: MEHGLRSIPAWTLDKFIEDYLLPDTTFGADVKSAVNVVCDFLKERCFQGAAHPVRVSKVVKGGSSGKGTTLKGKSDADLVVFLNNLTSFEDQLNRRGEFIKEIKKQLYEVQHERRFRVKFEVQSSWWPNARSLSFKLSAPHLHQEVEFDVLPAFDVLGHVNTSSKPDPRIYAILIEECTSLGKDGEFSTCFTELQRNFLKQRPTKLKSLIRLVKHWYQLCKEKLGKPLPPQYALELLTVFAWEQGNGCYEFNTAQGFRTVLELVINYQHLRIYWTKYYDFQHQEVSKYLHRQLRKARPVILDPADPTGNVAGGNPEGWRRLAEEADVWLWYPCFIKKDGSRVSSWDVPTVVPVPFEQVEENWTCILL

Reference: publication doi:10.1101/2023.09.05.556419
